The values that follow are results of earlier work, collected in paper PMC8954214, “Preparation, Identification, Molecular Docking Study and Protective Function on HUVECs of Novel ACE Inhibitory Peptides from Protein Hydrolysate of Skipjack Tuna Muscle” (Marine Drugs, 2022).

Protein sequences, listed by entry. Tags and fused reporters are not part of them. Residues count along the entry.
UniProt P12822, 34-1310 limits assumed: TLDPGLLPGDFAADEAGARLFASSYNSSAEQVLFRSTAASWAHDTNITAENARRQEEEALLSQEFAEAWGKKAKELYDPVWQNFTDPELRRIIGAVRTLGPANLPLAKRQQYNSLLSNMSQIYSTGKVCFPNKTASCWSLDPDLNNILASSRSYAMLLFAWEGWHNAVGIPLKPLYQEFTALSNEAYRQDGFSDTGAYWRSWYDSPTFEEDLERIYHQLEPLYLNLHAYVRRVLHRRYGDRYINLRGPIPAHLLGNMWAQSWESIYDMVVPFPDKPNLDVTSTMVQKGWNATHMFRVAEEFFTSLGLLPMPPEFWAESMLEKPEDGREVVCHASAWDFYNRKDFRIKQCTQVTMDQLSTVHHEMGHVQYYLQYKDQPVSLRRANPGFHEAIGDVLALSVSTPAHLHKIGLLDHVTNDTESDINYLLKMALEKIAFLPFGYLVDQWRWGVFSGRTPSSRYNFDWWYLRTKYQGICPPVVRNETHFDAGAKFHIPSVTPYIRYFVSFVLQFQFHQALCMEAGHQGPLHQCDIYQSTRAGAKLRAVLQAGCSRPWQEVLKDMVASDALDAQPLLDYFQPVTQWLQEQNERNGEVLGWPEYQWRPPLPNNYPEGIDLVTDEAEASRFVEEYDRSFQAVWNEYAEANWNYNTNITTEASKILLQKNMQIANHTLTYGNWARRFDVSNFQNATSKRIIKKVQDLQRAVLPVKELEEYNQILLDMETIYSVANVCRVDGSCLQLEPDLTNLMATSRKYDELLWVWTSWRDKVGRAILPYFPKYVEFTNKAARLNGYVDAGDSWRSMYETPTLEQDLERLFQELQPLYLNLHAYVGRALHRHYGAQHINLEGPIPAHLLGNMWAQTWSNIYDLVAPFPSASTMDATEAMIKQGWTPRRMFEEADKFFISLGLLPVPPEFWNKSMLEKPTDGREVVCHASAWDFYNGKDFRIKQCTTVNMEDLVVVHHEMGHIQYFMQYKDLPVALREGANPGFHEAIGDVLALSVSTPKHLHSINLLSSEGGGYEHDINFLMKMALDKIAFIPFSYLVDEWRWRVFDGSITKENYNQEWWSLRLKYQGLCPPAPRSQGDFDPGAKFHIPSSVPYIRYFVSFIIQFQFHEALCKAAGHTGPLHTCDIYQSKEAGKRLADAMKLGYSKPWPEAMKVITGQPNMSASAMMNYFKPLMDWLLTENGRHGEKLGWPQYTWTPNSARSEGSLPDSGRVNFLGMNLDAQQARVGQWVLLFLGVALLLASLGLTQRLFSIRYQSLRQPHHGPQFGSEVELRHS

The test system of data set [1] is HUVECs. To be noted: cited from earlier work.
For data set [2], the target named is T1, ACE (Oryctolagus cuniculus, UniProt P12822). To be noted: Antarctic krill peptides; cited from earlier work.
Data set [3] has as its system ET-1. As to conditions: from Antarctic krill; cited from earlier work.
Data set [4] deals with T1, ACE. To be noted: docking; cited from earlier work.

In brackets after ≈: the same amount, converted by molar mass. The match of structure and compound is tentative.

Take `NCCCC[C@H](NC(=O)[C@H](CCC(N)=O)NC(=O)[C@@H](N)Cc1ccccc1)C(=O)O`: in data set [1], the “NO production of HUVEC” value is recorded as “increasing the NO production”. Also, the IC50 (as a rule, the concentration that inhibits the measured activity by half) in data set [2] was 1760 µg/mL (≈ 4.18 mM). Further, the ET-1 content result in data set [3] is reported as “reducing ET-1 content”.

As for `NCCCC[C@H](NC(=O)[C@H](CO)NC(=O)[C@@H](N)Cc1ccc(O)cc1)C(=O)O`, the “affinity with ACE” value in data set [4] is -7.9 kcal/mol.
